Test results: PMC6760144
No constants are given. Whether binding was seen depends on the method and setting. Binding seen in cells or lysates may run through a third protein. Some entries that bind do so weakly or less than the wild type.

Chains of the proteins cited; added tags and fusions are not shown.
UniProt P29327: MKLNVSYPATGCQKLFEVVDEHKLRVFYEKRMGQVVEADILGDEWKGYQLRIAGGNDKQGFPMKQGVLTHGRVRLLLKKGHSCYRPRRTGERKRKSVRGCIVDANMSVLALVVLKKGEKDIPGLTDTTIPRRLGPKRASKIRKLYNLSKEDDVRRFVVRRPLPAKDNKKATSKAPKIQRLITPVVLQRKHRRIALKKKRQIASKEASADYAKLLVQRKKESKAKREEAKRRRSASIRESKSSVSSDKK

Target: ribosomal protein S5b (D. melanogaster (endogenous in ovaries)) (UniProt Q9VFE4)
Assay: co-IP; antisera to RpS5a, RpS5b or non-immune IgG on Dynabeads; ovary lysate in 50 mM HEPES pH 7.5, 100 mM KCl, 12 mM MgCl2, 1% NP-40, 1 mM dithiothreitol, RNase inhibitor, cycloheximide; 1.5 h at 4 °C; Western blot

binding: binds
Substance: ribosomal protein RpS6 (from UniProt P29327 1-248)
